Measured values as given in the supplement of paper PMC10849652.
The other results are listed elsewhere or left out.

Protein sequences, listed by entry. Tags and fused reporters are not part of them. Lines headed by an entry give the natural chain unless they say otherwise; changes in a name come on top.
UniProt Q9P289: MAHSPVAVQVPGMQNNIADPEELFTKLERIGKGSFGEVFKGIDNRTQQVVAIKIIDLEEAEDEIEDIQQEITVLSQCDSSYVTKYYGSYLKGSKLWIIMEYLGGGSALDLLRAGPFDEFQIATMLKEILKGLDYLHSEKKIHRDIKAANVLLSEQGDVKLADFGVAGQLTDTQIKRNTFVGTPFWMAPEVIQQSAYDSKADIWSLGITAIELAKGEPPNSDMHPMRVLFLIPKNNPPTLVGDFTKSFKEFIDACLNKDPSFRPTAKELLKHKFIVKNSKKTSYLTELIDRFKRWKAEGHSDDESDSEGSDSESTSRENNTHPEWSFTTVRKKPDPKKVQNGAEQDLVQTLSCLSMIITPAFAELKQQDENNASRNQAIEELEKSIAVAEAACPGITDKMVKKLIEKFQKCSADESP
UniProt Q8WXE9: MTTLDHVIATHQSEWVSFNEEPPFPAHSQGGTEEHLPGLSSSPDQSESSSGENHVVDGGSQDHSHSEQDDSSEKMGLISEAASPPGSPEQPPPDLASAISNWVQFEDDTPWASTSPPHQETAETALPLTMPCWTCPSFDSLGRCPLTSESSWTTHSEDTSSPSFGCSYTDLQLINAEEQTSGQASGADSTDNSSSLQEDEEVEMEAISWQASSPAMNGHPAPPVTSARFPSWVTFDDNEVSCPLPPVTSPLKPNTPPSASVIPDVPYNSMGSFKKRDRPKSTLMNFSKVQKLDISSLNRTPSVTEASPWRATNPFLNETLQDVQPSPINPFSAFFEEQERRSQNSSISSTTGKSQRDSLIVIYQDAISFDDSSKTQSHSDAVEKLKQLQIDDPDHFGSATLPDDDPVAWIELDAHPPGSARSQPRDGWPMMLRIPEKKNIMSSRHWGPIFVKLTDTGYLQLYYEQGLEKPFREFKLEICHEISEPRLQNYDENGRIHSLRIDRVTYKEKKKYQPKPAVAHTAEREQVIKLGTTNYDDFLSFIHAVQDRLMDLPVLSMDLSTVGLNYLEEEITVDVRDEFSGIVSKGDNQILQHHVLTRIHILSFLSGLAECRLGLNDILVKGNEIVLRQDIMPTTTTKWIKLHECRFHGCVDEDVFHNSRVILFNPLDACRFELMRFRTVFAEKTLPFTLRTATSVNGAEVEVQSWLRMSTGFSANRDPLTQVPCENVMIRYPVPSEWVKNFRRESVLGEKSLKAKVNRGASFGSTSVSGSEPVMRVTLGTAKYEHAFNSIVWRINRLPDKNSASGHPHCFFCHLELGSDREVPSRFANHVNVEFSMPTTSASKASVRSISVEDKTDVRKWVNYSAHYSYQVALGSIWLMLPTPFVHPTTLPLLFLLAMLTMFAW
UniProt P31948, whole entry, looked up: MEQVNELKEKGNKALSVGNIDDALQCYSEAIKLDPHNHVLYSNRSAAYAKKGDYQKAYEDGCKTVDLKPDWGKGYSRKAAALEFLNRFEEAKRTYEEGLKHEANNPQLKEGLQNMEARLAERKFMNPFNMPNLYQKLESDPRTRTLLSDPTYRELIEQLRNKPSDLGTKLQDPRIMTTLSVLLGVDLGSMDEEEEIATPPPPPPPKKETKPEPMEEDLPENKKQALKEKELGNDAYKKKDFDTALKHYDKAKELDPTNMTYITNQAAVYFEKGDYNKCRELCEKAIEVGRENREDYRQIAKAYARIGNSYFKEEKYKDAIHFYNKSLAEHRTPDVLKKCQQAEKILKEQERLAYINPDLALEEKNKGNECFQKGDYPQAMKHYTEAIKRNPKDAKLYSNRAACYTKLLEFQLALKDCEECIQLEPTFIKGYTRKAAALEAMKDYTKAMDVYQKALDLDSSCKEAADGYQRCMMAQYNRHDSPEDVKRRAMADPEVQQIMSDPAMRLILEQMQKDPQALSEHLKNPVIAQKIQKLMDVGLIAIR
UniProt Q5VSL9: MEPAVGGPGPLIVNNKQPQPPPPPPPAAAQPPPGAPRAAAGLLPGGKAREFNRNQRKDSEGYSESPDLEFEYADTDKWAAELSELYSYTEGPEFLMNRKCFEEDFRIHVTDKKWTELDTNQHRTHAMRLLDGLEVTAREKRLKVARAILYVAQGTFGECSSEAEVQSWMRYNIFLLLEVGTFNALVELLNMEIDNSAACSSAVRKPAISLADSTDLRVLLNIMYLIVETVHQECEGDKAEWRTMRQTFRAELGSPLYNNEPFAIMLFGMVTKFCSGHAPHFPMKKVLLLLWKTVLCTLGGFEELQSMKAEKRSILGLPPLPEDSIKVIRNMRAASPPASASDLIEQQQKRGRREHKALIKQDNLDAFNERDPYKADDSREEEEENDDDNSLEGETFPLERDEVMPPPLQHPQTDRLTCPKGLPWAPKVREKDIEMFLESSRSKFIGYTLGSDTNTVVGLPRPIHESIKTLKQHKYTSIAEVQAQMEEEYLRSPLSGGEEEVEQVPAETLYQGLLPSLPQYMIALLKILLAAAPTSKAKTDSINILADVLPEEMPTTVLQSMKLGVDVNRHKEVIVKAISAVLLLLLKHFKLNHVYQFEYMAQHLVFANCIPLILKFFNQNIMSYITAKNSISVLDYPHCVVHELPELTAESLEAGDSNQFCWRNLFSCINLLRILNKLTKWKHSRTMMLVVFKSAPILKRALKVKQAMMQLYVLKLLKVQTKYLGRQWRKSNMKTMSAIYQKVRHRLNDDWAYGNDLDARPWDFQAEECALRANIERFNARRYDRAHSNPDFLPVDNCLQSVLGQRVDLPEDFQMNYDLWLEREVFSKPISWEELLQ
UniProt Q1ZZU3: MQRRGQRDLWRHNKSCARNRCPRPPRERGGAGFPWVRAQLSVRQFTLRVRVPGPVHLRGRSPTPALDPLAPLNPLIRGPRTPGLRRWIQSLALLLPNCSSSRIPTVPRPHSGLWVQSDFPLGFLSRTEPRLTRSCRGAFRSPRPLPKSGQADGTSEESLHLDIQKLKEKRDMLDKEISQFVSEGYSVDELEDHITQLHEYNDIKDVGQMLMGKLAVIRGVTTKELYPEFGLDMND
UniProt Q13190: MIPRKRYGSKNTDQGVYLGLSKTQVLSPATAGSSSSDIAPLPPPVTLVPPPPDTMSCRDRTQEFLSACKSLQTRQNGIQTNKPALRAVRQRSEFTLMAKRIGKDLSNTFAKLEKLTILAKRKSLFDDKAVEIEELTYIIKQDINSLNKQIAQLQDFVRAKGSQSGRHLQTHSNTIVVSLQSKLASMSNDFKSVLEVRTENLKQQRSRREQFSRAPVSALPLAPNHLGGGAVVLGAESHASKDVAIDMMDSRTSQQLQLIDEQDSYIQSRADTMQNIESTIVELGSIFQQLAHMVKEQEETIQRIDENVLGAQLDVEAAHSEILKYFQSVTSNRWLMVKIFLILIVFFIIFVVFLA
UniProt Q8NHG7: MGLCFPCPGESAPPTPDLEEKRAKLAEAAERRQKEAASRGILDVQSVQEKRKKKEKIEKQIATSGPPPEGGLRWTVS
UniProt O43815: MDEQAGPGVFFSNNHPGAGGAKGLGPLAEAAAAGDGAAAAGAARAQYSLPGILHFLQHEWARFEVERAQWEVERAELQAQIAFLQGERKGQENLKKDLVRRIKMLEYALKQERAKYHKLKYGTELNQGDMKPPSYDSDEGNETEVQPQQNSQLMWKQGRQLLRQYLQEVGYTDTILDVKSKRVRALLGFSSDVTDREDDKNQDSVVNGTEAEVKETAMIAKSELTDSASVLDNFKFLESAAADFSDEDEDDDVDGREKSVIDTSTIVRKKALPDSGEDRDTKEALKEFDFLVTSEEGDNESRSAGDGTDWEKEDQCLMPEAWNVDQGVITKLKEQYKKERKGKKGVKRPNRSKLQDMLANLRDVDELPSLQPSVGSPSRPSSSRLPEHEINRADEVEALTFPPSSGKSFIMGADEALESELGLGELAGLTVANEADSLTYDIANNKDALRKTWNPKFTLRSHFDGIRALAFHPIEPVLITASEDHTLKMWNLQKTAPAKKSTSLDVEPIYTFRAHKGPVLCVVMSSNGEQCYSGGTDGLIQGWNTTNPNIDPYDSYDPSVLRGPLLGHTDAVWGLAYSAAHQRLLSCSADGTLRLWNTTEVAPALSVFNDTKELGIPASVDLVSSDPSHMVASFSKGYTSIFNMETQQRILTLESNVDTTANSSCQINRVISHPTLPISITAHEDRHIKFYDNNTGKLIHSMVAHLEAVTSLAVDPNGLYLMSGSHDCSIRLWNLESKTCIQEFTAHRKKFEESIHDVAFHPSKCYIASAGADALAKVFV
UniProt Q9UNK0: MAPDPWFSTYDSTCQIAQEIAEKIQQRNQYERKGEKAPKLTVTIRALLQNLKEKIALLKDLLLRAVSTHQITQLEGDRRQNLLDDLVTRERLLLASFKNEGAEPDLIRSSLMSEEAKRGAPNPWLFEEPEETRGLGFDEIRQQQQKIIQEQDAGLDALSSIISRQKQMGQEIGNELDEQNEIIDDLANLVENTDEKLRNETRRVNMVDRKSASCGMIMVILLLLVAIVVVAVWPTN
UniProt Q12962, whole entry, looked up: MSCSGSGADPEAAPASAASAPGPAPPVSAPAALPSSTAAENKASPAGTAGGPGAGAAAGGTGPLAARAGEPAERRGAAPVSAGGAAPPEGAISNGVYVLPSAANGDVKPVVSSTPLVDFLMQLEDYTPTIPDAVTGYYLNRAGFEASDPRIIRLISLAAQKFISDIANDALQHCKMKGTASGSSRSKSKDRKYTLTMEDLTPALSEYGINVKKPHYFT
UniProt P63165, whole entry, looked up: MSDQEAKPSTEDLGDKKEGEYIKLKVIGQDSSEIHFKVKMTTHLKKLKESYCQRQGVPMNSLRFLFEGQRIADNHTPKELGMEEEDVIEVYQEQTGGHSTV
UniProt Q96I99: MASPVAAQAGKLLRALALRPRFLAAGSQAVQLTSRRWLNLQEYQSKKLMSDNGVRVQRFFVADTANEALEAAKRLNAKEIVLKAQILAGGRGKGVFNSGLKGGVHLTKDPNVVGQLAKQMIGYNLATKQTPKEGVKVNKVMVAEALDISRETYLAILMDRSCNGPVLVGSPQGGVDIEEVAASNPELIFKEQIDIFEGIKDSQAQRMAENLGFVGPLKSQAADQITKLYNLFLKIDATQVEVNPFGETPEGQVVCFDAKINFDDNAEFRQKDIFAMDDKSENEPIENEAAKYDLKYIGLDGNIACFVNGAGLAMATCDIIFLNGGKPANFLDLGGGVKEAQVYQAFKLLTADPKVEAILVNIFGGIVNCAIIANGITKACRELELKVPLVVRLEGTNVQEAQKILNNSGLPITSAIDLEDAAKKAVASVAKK
UniProt Q16563: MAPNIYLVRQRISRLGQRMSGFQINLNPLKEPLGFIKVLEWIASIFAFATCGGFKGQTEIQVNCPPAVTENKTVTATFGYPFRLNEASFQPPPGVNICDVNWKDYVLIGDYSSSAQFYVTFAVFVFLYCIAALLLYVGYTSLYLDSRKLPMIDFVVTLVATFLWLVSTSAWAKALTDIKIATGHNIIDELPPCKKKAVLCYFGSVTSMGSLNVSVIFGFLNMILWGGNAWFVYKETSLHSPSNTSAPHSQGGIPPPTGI
UniProt O60499: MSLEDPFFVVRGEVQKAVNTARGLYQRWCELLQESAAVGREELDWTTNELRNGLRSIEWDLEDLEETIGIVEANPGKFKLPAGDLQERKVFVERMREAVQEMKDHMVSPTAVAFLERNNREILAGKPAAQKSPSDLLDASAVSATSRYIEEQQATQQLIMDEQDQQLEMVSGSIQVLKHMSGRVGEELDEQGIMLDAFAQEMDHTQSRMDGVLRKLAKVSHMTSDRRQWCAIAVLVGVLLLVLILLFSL

Experiments:
Test in all cases: log2 fold change, soluble protein after heating vs DMSO (PISA); higher = thermal stabilisation; K562 lysate, 10 uM; active = over 0.2 and 3.5 SD of the protein, either way, in both replicates (recomputed)
[1] = compound: CN1CC[C@H](c2c(O)cc(O)c3c(=O)cc(-c4ccccc4Cl)oc23)[C@H](O)C1 [alvocidib]
Procedure, shortened: (§1)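 K562 pellets were dounce-homogenised in PBS pH 7.4 with 1 mM MgCl2, and the crude extract at 1 mg/mL protein was treated with 10 μM compound for 30 min. Aliquots were heated for 3 min across 48°C-58°C, pooled, and brought to 0.5% NP-40 at 4°C; soluble protein was the supernatant after 21,000xg for 90 min. Soluble protein was quantified by TMTpro 16plex LC-MS/MS with channel sums equalised, and reported as log2 fold change in thermal stability against DMSO controls, with values from duplicates.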

[2] = compound: CN1CCc2c(c3ccccc3n2Cc2ccc(C(=O)NO)cc2)C1 [Tubastatin A]
Procedure, shortened: as §1

[3] = compound: CNC(=O)C1=CC=CC=C1NC2=NC(=NC=C2Cl)NC3=C(C=C(C=C3)N4CCOCC4)OC
Procedure, shortened: as §1

[4] = compound: CNC(=O)c1ccc(Nc2ncc(C(F)(F)F)c(NCc3nccnc3N(C)S(C)(=O)=O)n2)cc1 [defactinib]
Procedure, shortened: as §1

[5] = compound: CNc1nc(-c2ccc3c(N)n[nH]c3c2)cc(N2C[C@@H](C(=O)NC3CCCCC3)CC[C@H]2C)n1
Procedure, shortened: as §1

[6] = compound: COC(=O)N[C@@H](C)CNc1nccc(-c2cn(C(C)C)nc2-c2cc(Cl)cc(NS(C)(=O)=O)c2F)n1 [encorafenib]
Procedure, shortened: as §1

[7] = compound: COC(=O)[C@H](CCSC)NC(=O)C1=C(C=C(C=C1)NC[C@H](CS)N)C2=CC=CC=C2
Procedure, shortened: as §1

[8] = compound: COc1cc(Nc2ncc3c(n2)-c2ccc(Cl)cc2C(c2c(F)cccc2OC)=NC3)ccc1C(=O)O [alisertib]
Procedure, shortened: as §1

[9] = compound: COc1cc2nc(-c3cc(F)ccc3O)nc(N[C@@H]3CNC[C@H]3C(C)(C)O)c2cc1OC
Procedure, shortened: as §1

[10] = compound: COc1cc2ncnc(Nc3ccc(F)c(Cl)c3)c2cc1OCCCN1CCOCC1 [gefitinib]
Procedure, shortened: as §1

[11] = compound: CS(=O)(=O)CCNCc1ccc(-c2ccc3ncnc(Nc4ccc(OCc5cccc(F)c5)c(Cl)c4)c3c2)o1 [lapatinib]
Procedure, shortened: as §1

[12] = compound: CS(=O)(=O)N1CCN(Cc2cc3nc(-c4cccc5[nH]ncc45)nc(N4CCOCC4)c3s2)CC1 [pictilisib]
Procedure, shortened: as §1

[13] = compound: C[C@@H](Oc1cc(-c2cnn(C3CCNCC3)c2)cnc1N)c1c(Cl)ccc(F)c1Cl [crizotinib]
Procedure, shortened: as §1

[14] = compound: C[C@H](C1=CC=C(C=C1)C(=O)NC2=C3C=CNC3=NC=C2)N
Procedure, shortened: as §1

[15] = compound: C[C@H](Nc1ncnc2nc[nH]c12)c1cc2cccc(Cl)c2c(=O)n1-c1ccccc1 [duvelisib]
Procedure, shortened: as §1

[16] = compound: Cc1cc(Nc2cc(CN3CCOCC3)c3nc(C)c(Cc4ccc(Cl)cc4F)n3n2)n[nH]1 [gandotinib]
Procedure, shortened: as §1

[17] = compound: Cc1cc(Nc2cc(N3CCN(C)CC3)nc(Sc3ccc(NC(=O)C4CC4)cc3)n2)n[nH]1 [tozasertib]
Procedure, shortened: as §1

[18] = compound: Cc1ccc(-n2nc(C(C)(C)C)cc2NC(=O)Nc2ccc(OCCN3CCOCC3)c3ccccc23)cc1 [doramapimod]
Procedure, shortened: as §1

[19] = compound: Cc1ccc(NC(=O)c2ccc(CN3CC[C@H](N(C)C)C3)c(C(F)(F)F)c2)cc1Nc1nccc(-c2cncnc2)n1 [bafetinib]
Procedure, shortened: as §1

[20] = compound: Cc1cccc(CC(=O)N2CCc3c2ccc(-c2cn(C)c4ncnc(N)c24)c3F)n1
Procedure, shortened: as §1

Target	log2 fold change [1]	log2 fold change [2]	log2 fold change [3]	log2 fold change [4]	log2 fold change [5]	log2 fold change [6]	log2 fold change [7]	log2 fold change [8]	log2 fold change [9]	log2 fold change [10]	log2 fold change [11]	log2 fold change [12]	log2 fold change [13]	log2 fold change [14]	log2 fold change [15]	log2 fold change [16]	log2 fold change [17]	log2 fold change [18]	log2 fold change [19]	log2 fold change [20]
STK26 (UniProt Q9P289)	inactive: 0.027	inactive: -0.041	inactive: 0.003	inactive: 0.008	inactive: -0.06	inactive: 0.001	inactive: 0.009	inactive: -0.004	inactive: 0.022	inactive: -0.016	inactive: -0.011	inactive: 0.024	inactive: 0.007	inactive: -0.003	inactive: 0.005	inactive: 0.061	inactive: 0.005	inactive: -0.036	inactive: -0.015	inactive: -0.004
STON2 isoform 3 (UniProt Q8WXE9)	inactive: 0.013	inactive: -0.058	inactive: -0.078	inactive: -0.006	inactive: -0.037	inactive: 0.079	inactive: 0.14	inactive: 0.044	inactive: -0.037	inactive: 0.036	inactive: 0.021	inactive: -0.004	inactive: -0.08	inactive: -0.009	inactive: -0.009	inactive: 0.047	inactive: 0	inactive: 0.044	inactive: -0.065	inactive: 0.041
STIP1 isoform 2 (UniProt P31948)	inactive: 0.059	inactive: 0.012	inactive: 0	inactive: 0	inactive: 0.007	inactive: -0.019	inactive: -0.034	inactive: -0.005	inactive: 0.005	inactive: -0.007	inactive: 0.009	inactive: 0.006	inactive: 0.065	inactive: 0.085	inactive: 0.017	inactive: -0.053	inactive: 0.006	inactive: -0.021	inactive: 0.025	inactive: -0.119
STRIP1 (UniProt Q5VSL9)	inactive: 0.002	inactive: -0.078	inactive: 0.019	inactive: 0.024	inactive: 0.004	inactive: -0.015	inactive: 0.027	inactive: -0.005	inactive: -0.017	inactive: 0.053	inactive: 0.009	inactive: -0.062	inactive: -0.016	inactive: 0	inactive: 0.03	inactive: -0.024	inactive: -0.038	inactive: -0.006	inactive: -0.026	inactive: 0.027
SWI5 (UniProt Q1ZZU3)	inactive: 0.032	inactive: 0.008	inactive: 0.012	inactive: -0.065	inactive: 0.032	inactive: 0.044	inactive: -0.02	inactive: 0.049	inactive: -0.01	inactive: 0.056	inactive: 0.09	inactive: -0.059	inactive: 0.027	inactive: 0.026	inactive: 0.043	inactive: 0.123	inactive: 0.014	inactive: 0.056	inactive: -0.056	inactive: -0.082
STX5 (UniProt Q13190)	inactive: 0.009	inactive: -0.056	inactive: -0.001	inactive: 0.069	inactive: -0.047	inactive: -0.017	inactive: 0.028	inactive: 0.008	inactive: 0.093	inactive: -0.056	inactive: -0.014	inactive: -0.064	inactive: -0.061	inactive: 0.072	inactive: 0.06	inactive: -0.068	inactive: 0	inactive: 0.007	inactive: -0.116	inactive: 0.078
SUB1 (UniProt P53999)	inactive: -0.05	inactive: 0.048	inactive: -0.011	inactive: -0.023	inactive: 0.026	inactive: 0.014	inactive: -0.018	inactive: 0.018	inactive: 0.01	inactive: -0.019	inactive: 0.003	inactive: 0.024	inactive: 0.055	inactive: -0.003	inactive: 0.004	inactive: 0.012	inactive: -0.001	inactive: -0.078	inactive: 0.001	inactive: 0.016
SVIP (UniProt Q8NHG7)	inactive: -0.014	inactive: 0.028	inactive: -0.017	inactive: 0.025	inactive: 0.098	inactive: -0.042	inactive: -0.055	inactive: 0.05	inactive: -0.039	inactive: -0.099	inactive: 0.005	inactive: -0.03	inactive: -0.037	inactive: 0.027	inactive: -0.013	inactive: 0.01	inactive: 0.037	inactive: 0.021	inactive: -0.008	inactive: 0.032
STRN (UniProt O43815)	inactive: -0.03	inactive: -0.012	inactive: -0.004	inactive: 0.026	inactive: -0.006	inactive: 0.007	inactive: 0.052	inactive: -0.012	inactive: -0.005	inactive: -0.005	inactive: -0.005	inactive: 0.004	inactive: -0.007	inactive: -0.012	inactive: -0.01	inactive: -0.041	inactive: -0.014	inactive: 0	inactive: 0.016	inactive: 0.025
STX8 (UniProt Q9UNK0)	inactive: 0.015	inactive: -0.013	inactive: -0.014	inactive: 0.069	inactive: -0.056	inactive: 0.06	inactive: -0.035	inactive: 0.039	inactive: 0.035	inactive: 0.042	inactive: -0.022	inactive: -0.083	inactive: -0.052	inactive: 0.004	inactive: 0.048	inactive: -0.043	inactive: 0.05	inactive: 0.081	inactive: 0.104	inactive: 0.003
TAF10 (UniProt Q12962)	inactive: 0.074	inactive: -0.019	inactive: 0.017	inactive: 0.046	inactive: -0.027	inactive: -0.009	inactive: -0.145	inactive: -0.039	inactive: -0.046	inactive: -0.124	inactive: 0.008	inactive: -0.073	inactive: 0.011	inactive: 0.039	inactive: -0.013	inactive: 0.021	inactive: 0.004	inactive: -0.035	inactive: 0.066	inactive: -0.005
SUPT6H (UniProt Q7KZ85)	inactive: -0.004	inactive: -0.065	inactive: -0.011	inactive: 0.016	inactive: 0.026	inactive: 0.007	inactive: 0.041	inactive: -0.021	inactive: 0.007	inactive: 0.025	inactive: -0.021	inactive: -0.045	inactive: -0.035	inactive: -0.064	inactive: -0.041	inactive: 0.066	inactive: -0.046	inactive: 0.052	inactive: -0.037	inactive: 0.056
SUMO1 (UniProt P63165)	inactive: 0.043	inactive: -0.014	inactive: -0.032	inactive: -0.001	inactive: -0.124	inactive: 0.057	inactive: -0.051	inactive: 0.018	inactive: -0.024	inactive: -0.089	inactive: 0.01	inactive: -0.051	inactive: -0.025	inactive: -0.042	inactive: 0.027	inactive: -0.002	inactive: 0.066	inactive: 0.07	inactive: -0.004	inactive: -0.011
SUCLG2 (UniProt Q96I99)	inactive: 0.03	inactive: -0.001	inactive: -0.014	inactive: 0.006	inactive: 0.004	inactive: -0.016	inactive: 0.101	inactive: 0.002	inactive: 0	inactive: -0.002	inactive: -0.032	inactive: 0.007	inactive: 0.005	inactive: -0.016	inactive: 0.021	inactive: -0.048	inactive: 0.012	inactive: 0.022	inactive: -0.005	inactive: -0.009
SYPL1 (UniProt Q16563)	inactive: -0.132	inactive: 0.057	inactive: -0.007	inactive: -0.014	inactive: 0.029	inactive: 0.013	inactive: -0.022	inactive: 0.016	inactive: 0.012	inactive: -0.033	inactive: 0.015	inactive: -0.025	inactive: -0.001	active: -0.376	inactive: 0.004	inactive: 0.16	inactive: -0.028	inactive: -0.009	inactive: -0.034	inactive: 0.163
STX10 (UniProt O60499)	inactive: 0.114	inactive: 0.037	inactive: -0.01	inactive: -0.032	inactive: 0.031	inactive: 0.043	inactive: -0.076	inactive: 0.044	inactive: 0.068	inactive: -0.001	inactive: -0.062	inactive: 0.07	inactive: -0.078	inactive: 0.068	inactive: 0.002	inactive: 0.151	inactive: 0.027	inactive: -0.013	inactive: -0.016	inactive: 0.045

Full records from above. Values in the order: log2 fold change [1]	log2 fold change [2]	log2 fold change [3]	log2 fold change [4]	log2 fold change [5]	log2 fold change [6]	log2 fold change [7]	log2 fold change [8]	log2 fold change [9]	log2 fold change [10]	log2 fold change [11]	log2 fold change [12]	log2 fold change [13]	log2 fold change [14]	log2 fold change [15]	log2 fold change [16]	log2 fold change [17]	log2 fold change [18]	log2 fold change [19]	log2 fold change [20]
TAF10 (UniProt Q12962) is listed with inactive: 0.074	inactive: -0.019	inactive: 0.017	inactive: 0.046	inactive: -0.027	inactive: -0.009	inactive: -0.145	inactive: -0.039	inactive: -0.046	inactive: -0.124	inactive: 0.008	inactive: -0.073	inactive: 0.011	inactive: 0.039	inactive: -0.013	inactive: 0.021	inactive: 0.004	inactive: -0.035	inactive: 0.066	inactive: -0.005
STON2 isoform 3 (UniProt Q8WXE9) is listed with inactive: 0.013	inactive: -0.058	inactive: -0.078	inactive: -0.006	inactive: -0.037	inactive: 0.079	inactive: 0.14	inactive: 0.044	inactive: -0.037	inactive: 0.036	inactive: 0.021	inactive: -0.004	inactive: -0.08	inactive: -0.009	inactive: -0.009	inactive: 0.047	inactive: 0	inactive: 0.044	inactive: -0.065	inactive: 0.041
